Paper doi:10.1101/2024.06.18.599485
Results are given in words; binding and its absence hold for the method and conditions named. Binding seen in cells or lysates may run through a third protein. These calls come from enrichment with a bait or labelling near it, and not all partners need be listed.

Sequences of proteins named here, by UniProt entry; tags and fusion partners are left off. A change or cut given only in a name is not applied to a line headed by its entry.
UniProt Q13136: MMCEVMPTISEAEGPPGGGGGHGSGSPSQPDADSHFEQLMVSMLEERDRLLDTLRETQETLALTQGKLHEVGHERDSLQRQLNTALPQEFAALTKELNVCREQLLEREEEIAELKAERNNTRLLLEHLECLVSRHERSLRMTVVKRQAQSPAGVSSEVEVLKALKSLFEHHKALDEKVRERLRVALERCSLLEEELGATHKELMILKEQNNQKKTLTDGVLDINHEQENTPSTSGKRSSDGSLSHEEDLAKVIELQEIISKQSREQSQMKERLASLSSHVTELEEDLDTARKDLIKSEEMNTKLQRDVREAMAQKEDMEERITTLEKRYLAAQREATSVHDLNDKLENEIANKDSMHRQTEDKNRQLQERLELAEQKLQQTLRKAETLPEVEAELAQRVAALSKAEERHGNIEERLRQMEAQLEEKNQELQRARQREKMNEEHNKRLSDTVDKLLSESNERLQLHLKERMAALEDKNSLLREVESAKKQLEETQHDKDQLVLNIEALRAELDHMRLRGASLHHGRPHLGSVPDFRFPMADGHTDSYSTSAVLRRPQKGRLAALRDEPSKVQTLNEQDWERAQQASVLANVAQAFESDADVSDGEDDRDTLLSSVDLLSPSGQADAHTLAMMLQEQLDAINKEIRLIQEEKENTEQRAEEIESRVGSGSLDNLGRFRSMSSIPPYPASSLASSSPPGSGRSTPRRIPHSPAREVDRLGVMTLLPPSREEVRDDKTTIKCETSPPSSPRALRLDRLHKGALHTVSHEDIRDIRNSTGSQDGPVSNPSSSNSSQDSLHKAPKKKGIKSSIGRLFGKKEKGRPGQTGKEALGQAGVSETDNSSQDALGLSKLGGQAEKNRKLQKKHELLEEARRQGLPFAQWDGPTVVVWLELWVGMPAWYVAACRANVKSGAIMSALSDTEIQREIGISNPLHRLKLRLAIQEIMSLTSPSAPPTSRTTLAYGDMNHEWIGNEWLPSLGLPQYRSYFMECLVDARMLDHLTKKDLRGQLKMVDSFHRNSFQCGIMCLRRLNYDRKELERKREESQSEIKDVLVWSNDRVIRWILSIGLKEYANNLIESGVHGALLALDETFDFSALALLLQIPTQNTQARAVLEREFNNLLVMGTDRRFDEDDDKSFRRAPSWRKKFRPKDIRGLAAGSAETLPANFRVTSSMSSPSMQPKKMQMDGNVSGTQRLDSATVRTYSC
UniProt P67775: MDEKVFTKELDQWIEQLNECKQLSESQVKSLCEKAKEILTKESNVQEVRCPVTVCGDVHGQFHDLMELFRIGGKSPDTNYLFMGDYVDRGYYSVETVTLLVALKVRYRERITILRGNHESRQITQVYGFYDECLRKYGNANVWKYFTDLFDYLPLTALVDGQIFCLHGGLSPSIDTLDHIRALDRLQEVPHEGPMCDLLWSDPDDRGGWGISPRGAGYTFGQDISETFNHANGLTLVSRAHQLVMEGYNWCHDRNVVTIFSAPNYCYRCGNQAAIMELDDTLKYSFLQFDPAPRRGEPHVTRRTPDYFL

Target: GFP-tagged full-length liprin-α1 (WT) (UniProt Q13136)
Test: affinity purification with mass spectrometry

binding: binds
Substance: PP2A catalytic subunit (PPP2CA/CB) (from UniProt P67775)
